Taken from: PubChem BioAssay AID652243 (Drosophila RNAi Screening Center, 2013)

Screen: 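Knock-downs that decrease or increase androgen receptor reporter signal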 (primary screen)
Cells: Drosophila S2R+ cells
Reagents: long dsRNA against Drosophila genes
Timing: 72 h (48 h, then 24 h hormone)
Challenge: synthetic androgen R1881 at 10 nM for 24 h
Detection: 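Firefly light from an androgen-responsive reporter and Renilla control light per well, raw and unnormalised, for each of two replicates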
Direction: firefly reporter light: higher = more light from androgen-responsive reporter; Renilla control light: higher = more constitutive control signal (cell number, transfection)
Rule for the call: 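Across duplicate plates, a knock-down whose log firefly/Renilla ratio shifted a set fold down or up from the GFP/LacZ control mean was a hit; the downward cut appears as both 1.5 and 3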
Calls: active = hit: reporter lowered or raised; inactive = no hit
In all, the deposit lists about 24,000 reagents; shown is a random part of those that have a named target and a result. Of all reagents, 246 (1%) got an active call. 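Plates not normalised; calls are printed but the firefly/Renilla ratio behind them is not deposited; fold cut for lowering reported inconsistently.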 Raw values vary from plate to plate and are shown uncorrected. The numbers tell different reagents against one gene apart. No sequences are given here. Not given: the amount of reagent.

Yif1 (GeneID 43217) — firefly reporter light, replicate 1 = 1.46e5; firefly reporter light, replicate 2 = 1.40e5; Renilla control light, replicate 1 = 1.28e6; Renilla control light, replicate 2 = 2.39e6; activity call = inactive
CG9839 (GeneID 41055) — firefly reporter light, replicate 1 = 47747; firefly reporter light, replicate 2 = 21033; Renilla control light, replicate 1 = 2.82e5; Renilla control light, replicate 2 = 3.60e5; activity call = inactive
CG11436 (GeneID 31386) — firefly reporter light, replicate 1 = 1.15e5; firefly reporter light, replicate 2 = 62769; Renilla control light, replicate 1 = 6.85e5; Renilla control light, replicate 2 = 4.93e5; activity call = inactive
Ced-12 (GeneID 34633) #1 — firefly reporter light, replicate 1 = 1.68e5; firefly reporter light, replicate 2 = 1.85e5; Renilla control light, replicate 1 = 1.04e6; Renilla control light, replicate 2 = 1.33e6; activity call = inactive
Ced-12 (GeneID 34633) #2 — firefly reporter light, replicate 1 = 9.32e5; firefly reporter light, replicate 2 = 1.11e6; Renilla control light, replicate 1 = 8.97e5; Renilla control light, replicate 2 = 1.02e6; activity call = inactive
CG10205 (GeneID 36650) — firefly reporter light, replicate 1 = 90444; firefly reporter light, replicate 2 = 84294; Renilla control light, replicate 1 = 6.87e5; Renilla control light, replicate 2 = 6.87e5; activity call = inactive
CG9330 (GeneID 40131) #1 — firefly reporter light, replicate 1 = 1.80e5; firefly reporter light, replicate 2 = 1.83e5; Renilla control light, replicate 1 = 1.57e6; Renilla control light, replicate 2 = 2.43e6; activity call = inactive
CG9330 (GeneID 40131) #2 — firefly reporter light, replicate 1 = 3.09e5; firefly reporter light, replicate 2 = 3.28e5; Renilla control light, replicate 1 = 7.41e5; Renilla control light, replicate 2 = 7.41e5; activity call = inactive
Pp1-Y2 (GeneID 3355173) #1 — firefly reporter light, replicate 1 = 1.01e6; firefly reporter light, replicate 2 = 1.14e6; Renilla control light, replicate 1 = 4.76e5; Renilla control light, replicate 2 = 7.84e5; activity call = inactive
Pp1-Y2 (GeneID 3355173) #2 — activity call = inactive
alphaKap4 (GeneID 38675) — firefly reporter light, replicate 1 = 1.24e5; firefly reporter light, replicate 2 = 96323; Renilla control light, replicate 1 = 1.36e6; Renilla control light, replicate 2 = 1.02e6; activity call = inactive
vret (GeneID 42695) — firefly reporter light, replicate 1 = 1.04e5; firefly reporter light, replicate 2 = 1.04e5; Renilla control light, replicate 1 = 9.52e5; Renilla control light, replicate 2 = 9.81e5; activity call = inactive
CG30495 (GeneID 246651) #1 — firefly reporter light, replicate 1 = 3.20e5; firefly reporter light, replicate 2 = 3.01e5; Renilla control light, replicate 1 = 1.82e6; Renilla control light, replicate 2 = 8.53e5; activity call = inactive
CG30495 (GeneID 246651) #2 — firefly reporter light, replicate 1 = 2.83e5; firefly reporter light, replicate 2 = 3.09e5; Renilla control light, replicate 1 = 5.68e5; Renilla control light, replicate 2 = 6.46e5; activity call = inactive
CG31464 (GeneID 318749) — firefly reporter light, replicate 1 = 56037; firefly reporter light, replicate 2 = 93771; Renilla control light, replicate 1 = 1.54e6; Renilla control light, replicate 2 = 1.69e6; activity call = inactive
CG5715 (GeneID 42895) #1 — firefly reporter light, replicate 1 = 1.53e5; firefly reporter light, replicate 2 = 1.27e5; Renilla control light, replicate 1 = 1.74e6; Renilla control light, replicate 2 = 1.71e6; activity call = inactive
CG5715 (GeneID 42895) #2 — firefly reporter light, replicate 1 = 4.23e5; firefly reporter light, replicate 2 = 4.47e5; Renilla control light, replicate 1 = 8.52e5; Renilla control light, replicate 2 = 7.19e5; activity call = inactive
asRNA:CR31084 (GeneID 10178907) — firefly reporter light, replicate 1 = 8.86e5; firefly reporter light, replicate 2 = 7.66e5; Renilla control light, replicate 1 = 2.30e6; Renilla control light, replicate 2 = 1.61e6; activity call = inactive
CG31038 (GeneID 43535) #1 — firefly reporter light, replicate 1 = 72656; firefly reporter light, replicate 2 = 82625; Renilla control light, replicate 1 = 7.82e5; Renilla control light, replicate 2 = 7.05e5; activity call = inactive
CG31038 (GeneID 43535) #2 — firefly reporter light, replicate 1 = 1.29e5; firefly reporter light, replicate 2 = 1.13e5; Renilla control light, replicate 1 = 2.18e6; Renilla control light, replicate 2 = 2.91e6; activity call = inactive
CG31038 (GeneID 43535) #3 — firefly reporter light, replicate 1 = 1.65e5; firefly reporter light, replicate 2 = 1.60e5; Renilla control light, replicate 1 = 2.33e6; Renilla control light, replicate 2 = 2.47e6; activity call = inactive
CG31038 (GeneID 43535) #4 — firefly reporter light, replicate 1 = 5.35e5; firefly reporter light, replicate 2 = 8.01e5; Renilla control light, replicate 1 = 6.75e5; Renilla control light, replicate 2 = 8.19e5; activity call = inactive

Records listed so far whose gene name starts with P or p:
Pp1-Y2 (GeneID 3355173) #1 — firefly reporter light, replicate 1 = 1.01e6; firefly reporter light, replicate 2 = 1.14e6; Renilla control light, replicate 1 = 4.76e5; Renilla control light, replicate 2 = 7.84e5; activity call = inactive
Pp1-Y2 (GeneID 3355173) #2 — activity call = inactive
